No constants are given. Whether binding was seen depends on the method and setting. In cells and extracts the contact can be indirect. These calls come from enrichment with a bait or labelling near it, and not all partners need be listed.
Target: YFP-Epac1 (exchange protein directly activated by cAMP-1), expressed in HEK293 cells (UniProt O95398)
Test: affinity purification with mass spectrometry; GFP-TRAP immunoprecipitation of YFP-Epac1 (GFP as control) from HEK293 lysate; SDS-PAGE, silver stain, bands between 72 and 120 kDa excised, trypsin, LC-MS/MS (Orbitrap Elite), Mascot search of Swiss-Prot

Sequences of proteins named here, by UniProt entry; tags and fusion partners are left off. Residues count along the entry.
UniProt O95398, residues 43-923: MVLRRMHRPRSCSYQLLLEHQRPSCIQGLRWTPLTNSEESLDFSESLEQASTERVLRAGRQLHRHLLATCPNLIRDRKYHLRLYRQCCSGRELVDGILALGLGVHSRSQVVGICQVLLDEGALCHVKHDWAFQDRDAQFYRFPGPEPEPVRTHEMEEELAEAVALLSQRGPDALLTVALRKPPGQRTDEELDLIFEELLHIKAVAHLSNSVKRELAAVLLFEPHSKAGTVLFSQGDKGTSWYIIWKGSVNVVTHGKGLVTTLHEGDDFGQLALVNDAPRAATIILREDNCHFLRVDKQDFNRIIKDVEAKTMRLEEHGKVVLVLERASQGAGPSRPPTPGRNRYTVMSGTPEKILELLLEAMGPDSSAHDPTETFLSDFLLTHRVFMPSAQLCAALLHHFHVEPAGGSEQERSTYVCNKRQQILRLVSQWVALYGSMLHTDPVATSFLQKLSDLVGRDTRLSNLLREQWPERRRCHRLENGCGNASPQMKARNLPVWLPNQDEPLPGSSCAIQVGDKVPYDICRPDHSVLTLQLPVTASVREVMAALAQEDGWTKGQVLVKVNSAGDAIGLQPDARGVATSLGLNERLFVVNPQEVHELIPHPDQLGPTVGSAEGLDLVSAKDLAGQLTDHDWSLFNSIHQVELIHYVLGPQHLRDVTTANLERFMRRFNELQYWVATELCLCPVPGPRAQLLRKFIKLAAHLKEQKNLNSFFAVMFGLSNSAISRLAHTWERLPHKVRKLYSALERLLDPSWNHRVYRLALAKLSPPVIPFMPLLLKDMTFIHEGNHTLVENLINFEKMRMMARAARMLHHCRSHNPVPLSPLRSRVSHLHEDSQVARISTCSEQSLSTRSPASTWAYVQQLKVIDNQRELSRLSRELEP
UniProt Q14974: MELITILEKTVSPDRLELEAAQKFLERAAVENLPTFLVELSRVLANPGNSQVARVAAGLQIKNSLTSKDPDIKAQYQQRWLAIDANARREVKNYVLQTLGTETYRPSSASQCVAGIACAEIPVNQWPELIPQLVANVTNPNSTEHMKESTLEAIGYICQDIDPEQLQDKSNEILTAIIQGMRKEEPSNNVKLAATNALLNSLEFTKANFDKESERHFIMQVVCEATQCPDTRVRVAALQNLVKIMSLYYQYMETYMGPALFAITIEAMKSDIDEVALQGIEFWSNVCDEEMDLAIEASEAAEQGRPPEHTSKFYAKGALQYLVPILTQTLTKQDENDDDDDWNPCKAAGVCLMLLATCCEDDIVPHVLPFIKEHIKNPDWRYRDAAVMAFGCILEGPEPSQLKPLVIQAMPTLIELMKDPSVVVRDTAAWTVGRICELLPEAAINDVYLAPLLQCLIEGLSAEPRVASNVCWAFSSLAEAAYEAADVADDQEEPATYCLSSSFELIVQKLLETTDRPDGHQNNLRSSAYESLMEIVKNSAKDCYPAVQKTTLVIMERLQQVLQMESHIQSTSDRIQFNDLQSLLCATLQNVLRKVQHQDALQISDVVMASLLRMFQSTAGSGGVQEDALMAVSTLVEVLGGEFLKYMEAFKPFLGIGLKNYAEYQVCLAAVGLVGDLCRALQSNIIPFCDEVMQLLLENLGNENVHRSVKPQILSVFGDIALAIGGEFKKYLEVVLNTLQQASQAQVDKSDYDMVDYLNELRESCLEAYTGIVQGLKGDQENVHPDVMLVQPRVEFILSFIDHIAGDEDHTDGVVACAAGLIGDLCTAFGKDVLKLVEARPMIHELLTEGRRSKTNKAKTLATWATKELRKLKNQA
UniProt P0DMV8: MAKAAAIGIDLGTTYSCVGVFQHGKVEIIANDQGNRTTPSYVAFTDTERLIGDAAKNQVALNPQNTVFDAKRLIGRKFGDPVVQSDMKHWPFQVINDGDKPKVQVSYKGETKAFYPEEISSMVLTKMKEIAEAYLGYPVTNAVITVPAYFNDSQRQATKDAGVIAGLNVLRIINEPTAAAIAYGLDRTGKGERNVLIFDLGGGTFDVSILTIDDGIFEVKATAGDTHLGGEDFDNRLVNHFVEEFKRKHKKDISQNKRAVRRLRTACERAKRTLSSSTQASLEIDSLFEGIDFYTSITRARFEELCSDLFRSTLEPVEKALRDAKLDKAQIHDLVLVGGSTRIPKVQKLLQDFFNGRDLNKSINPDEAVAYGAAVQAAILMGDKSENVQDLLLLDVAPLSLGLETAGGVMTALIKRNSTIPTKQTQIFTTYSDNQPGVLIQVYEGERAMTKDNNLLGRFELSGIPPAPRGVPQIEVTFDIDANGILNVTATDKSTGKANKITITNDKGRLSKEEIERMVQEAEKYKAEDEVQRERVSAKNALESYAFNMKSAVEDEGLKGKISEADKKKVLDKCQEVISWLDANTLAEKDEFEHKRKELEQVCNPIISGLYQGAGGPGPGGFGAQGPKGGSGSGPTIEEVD
UniProt P08238: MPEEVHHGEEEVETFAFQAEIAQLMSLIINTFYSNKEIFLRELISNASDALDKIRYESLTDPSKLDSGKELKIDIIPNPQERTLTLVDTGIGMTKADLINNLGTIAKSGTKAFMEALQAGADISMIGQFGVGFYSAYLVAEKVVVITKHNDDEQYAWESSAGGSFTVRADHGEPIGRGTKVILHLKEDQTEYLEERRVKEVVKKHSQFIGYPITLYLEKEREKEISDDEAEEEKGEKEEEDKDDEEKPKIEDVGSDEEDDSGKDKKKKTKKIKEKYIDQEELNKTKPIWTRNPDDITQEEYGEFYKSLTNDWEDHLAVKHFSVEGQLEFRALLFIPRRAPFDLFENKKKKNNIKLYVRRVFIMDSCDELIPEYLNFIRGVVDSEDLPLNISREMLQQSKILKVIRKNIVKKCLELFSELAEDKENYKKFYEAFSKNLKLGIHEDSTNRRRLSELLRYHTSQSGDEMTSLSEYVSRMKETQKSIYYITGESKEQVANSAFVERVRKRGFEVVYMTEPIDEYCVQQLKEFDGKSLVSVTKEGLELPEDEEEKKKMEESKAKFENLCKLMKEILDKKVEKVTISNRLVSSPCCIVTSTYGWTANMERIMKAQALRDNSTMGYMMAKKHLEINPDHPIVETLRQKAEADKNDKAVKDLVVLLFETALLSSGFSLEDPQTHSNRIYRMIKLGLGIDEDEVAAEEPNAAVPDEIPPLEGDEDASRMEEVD
UniProt P54652: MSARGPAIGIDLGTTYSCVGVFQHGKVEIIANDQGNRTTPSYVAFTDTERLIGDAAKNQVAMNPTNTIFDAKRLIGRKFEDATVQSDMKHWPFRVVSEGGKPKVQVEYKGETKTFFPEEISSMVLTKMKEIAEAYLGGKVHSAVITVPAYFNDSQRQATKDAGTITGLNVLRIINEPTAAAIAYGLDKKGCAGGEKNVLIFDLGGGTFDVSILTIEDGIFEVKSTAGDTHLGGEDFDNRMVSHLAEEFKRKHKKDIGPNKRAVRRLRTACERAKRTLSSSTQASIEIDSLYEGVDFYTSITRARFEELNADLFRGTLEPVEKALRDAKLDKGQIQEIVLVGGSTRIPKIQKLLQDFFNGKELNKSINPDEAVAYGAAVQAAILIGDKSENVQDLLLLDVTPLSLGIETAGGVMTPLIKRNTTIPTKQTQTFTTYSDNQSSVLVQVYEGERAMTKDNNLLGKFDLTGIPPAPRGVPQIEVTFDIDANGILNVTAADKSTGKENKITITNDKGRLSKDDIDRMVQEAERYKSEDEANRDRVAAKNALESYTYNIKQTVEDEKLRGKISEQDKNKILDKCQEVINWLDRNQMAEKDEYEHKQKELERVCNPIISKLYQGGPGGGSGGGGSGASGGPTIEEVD

Substance | binding
importin β1 (impβ1), endogenous in HEK293 cells (from UniProt Q14974 1-876) | binds
HSP70-1A, endogenous in HEK293 cells (from UniProt P0DMV8 1-641) | binds
HSP90α, endogenous in HEK293 cells (from UniProt P07900 1-732) | binds
HSP90β, endogenous in HEK293 cells (from UniProt P08238 1-724) | binds
HSP70-2, endogenous in HEK293 cells (from UniProt P54652 1-639) | binds

From paper PMC5093460
